Experimental data as given in ChEMBL document CHEMBL4513156, “CO-ADD screening of NCPRI (Romania) compounds”.
The other results are listed elsewhere or left out. Potency and affinity values are given separately.

system: Pseudomonas aeruginosa; settings: Concentration 32 ug.mL-1; ASSAY_TEST Inhibition of Bacterial Growth; detection method Absorption (OD600); MEDIA CAMHB; plate type 384well; NBS; CORNING #3640; time 18 hr

| SMILES | Inhibition [%] |
| --- | --- |
| O=C(N/N=C/C[C@@H]1[C@@H](/C=N/NC(=O)c2ccncc2)[C@H](O)C[C@@H]1O)c1ccncc1 | 8.68 |
| O=C(ON/N=C/[C@@H]1[C@@H]2C[C@H](Cl)[C@H]1C[C@H]2O)c1ccncc1 | 11.34 |
| O=C(NNC(c1ccccc1)(c1ccccc1)c1ccccc1)c1ccncc1 | -2.72 |
| O=C(NNC(=O)c1cccc([N+](=O)[O-])c1C(=O)O)c1ccncc1 | 10.43 |
| O=C(NNC(=O)[C@@H]1C[C@H](C(=O)O)[C@@H]2CCC[C@@H]21)c1ccncc1 | 10.02 |
| O=C(NN=CC[C@H]1[C@H](CO)[C@@H](O)C[C@H]1O)c1ccncc1 | 9.94 |
| COC(=O)CCCCCC[C@@H]1[C@@H](/C=N/NC(=O)c2ccncc2)[C@H](OC(=O)c2ccccc2)C[C@@H]1O | 9.99 |
| O=C(N/N=C/C[C@@H]1[C@@H](CO)[C@H](O)C[C@@H]1O)c1ccncc1 | 12.52 |
| O=C(NNC(=O)c1ccc([N+](=O)[O-])cc1C(=O)O)c1ccncc1 | 10.8 |
| CC(C)(C)[Si](C)(C)O[C@H](/C=C/[C@@H]1[C@@H](CC=NNC(=O)c2ccncc2)[C@@H](O)C[C@H]1O[Si](C)(C)C(C)(C)C)CCc1ccccc1 | 3.71 |
| O=C(N/N=C1/C[C@@H]2[C@@H](C(=O)O)[C@H]1C[C@H]2Cl)c1ccncc1 | 12.53 |
| O=C1C[C@H]2[C@H](/C=N/NC(=O)c3ccncc3)[C@H](C[C@@H]2Cl)O1 | 14.48 |
| O=C(NNC(=O)[C@@H]1C[C@H](C(=O)O)[C@@H]2CC=C[C@@H]21)c1ccncc1 | 10.12 |
| O=C1C[C@@H]2[C@@H](C=NNC(=O)c3ccncc3)[C@@H](C[C@H]2Cl)O1 | 14.29 |
| O=C(N/N=C1\CC[C@@H]2[C@H]1[C@H](OC(=O)c1ccccc1)C[C@@H]2OC(=O)c1ccccc1)c1ccncc1 | 9.12 |
| COC(=O)CCCCCC[C@@H]1[C@@H](/C=N/NC(=O)c2ccncc2)[C@H](O)C[C@@H]1O | 7.13 |
| O=C(N/N=C1\C[C@@H]2[C@H](COC(c3ccccc3)(c3ccccc3)c3ccccc3)C[C@H](CO)[C@@H]2C1)c1ccncc1 | 1.84 |
| O=C(N/N=C/CCCO)c1ccncc1 | 3.52 |
| O=C(N/N=C1\C[C@@H]2[C@@H](CO)[C@H]1C[C@H]2Cl)c1ccncc1 | 7.54 |

| SMILES | Inhibition [%] |
| --- | --- |
| O=C(NN=CC[C@@H]1[C@@H](COC2CCCCO2)[C@H](OC2CCCCO2)C[C@@H]1O)c1ccncc1 (some centres not stated) | 7.45 |
| O=C(N/N=C/C[C@@H]1[C@@H](/C=C/[C@@H](O)COc2ccccc2)[C@H](O)C[C@@H]1O)c1ccncc1 | 5.39 |
| COC(=O)C[C@H]1[C@H](/C=N\NC(=O)c2ccncc2)[C@@H](O[Si](C)(C)C(C)(C)C)C[C@@H]1Cl | 14.32 |
| O=C(N/N=C1/C2C[C@H]3C(C2CO)[C@H]13)c1ccncc1 (some centres not stated) | 10.32 |
| O=C(N/N=C/COc1cccc(Cl)c1)c1ccncc1 | 5.17 |
| NNC(=O)c1ccncc1 [ISONIAZID] | 12.59 |
| O=C(N/N=C1/C2C[C@H]3C(C2C(=O)O)[C@@H]13)c1ccncc1 (some centres not stated) | 7.48 |
| CC(C)(C)[Si](C)(C)OC[C@H]1[C@H](CC=NNC(=O)c2ccncc2)[C@H](O)C[C@@H]1O[Si](C)(C)C(C)(C)C | 13.2 |
| O=C(NN=CC[C@@H]1[C@@H](/C=C/[C@@H](O)CCc2ccccc2)[C@H](OC(=O)c2ccccc2)C[C@@H]1O)c1ccncc1 | 4.08 |
| O=C(NN=C[C@H]1[C@@H]2CCO[C@@H]2C[C@@H]1O)c1ccncc1 | 4.35 |
| O=C(N/N=C/[C@@H]1C[C@H](CO)[C@@H]2CCC[C@@H]21)c1ccncc1 | 11.04 |
| O=C(N/N=C/C[C@@H]1[C@@H](/C=C/[C@@H](O)COc2cccc(Cl)c2)[C@H](O)C[C@@H]1O)c1ccncc1 | 8.91 |
| CC(C)(C)[Si](C)(C)OCC1C2C[C@H]3C1[C@@H]3/C2=N/NC(=O)c1ccncc1 (some centres not stated) | 4.45 |
| O=C(N/N=C1/C[C@H]2[C@H](CO)[C@@H]1C[C@@H]2Cl)c1ccncc1 | 9.04 |
| O=C(N/N=C1/C[C@@H]2[C@H](C1)[C@H](OC(=O)c1ccccc1)C[C@@H]2OC(=O)c1ccccc1)c1ccncc1 | 10.82 |
| O=C(NN=CC[C@@H]1[C@@H](/C=C/[C@@H](O)CCc2ccccc2)[C@H](O)C[C@@H]1O)c1ccncc1 | 5.13 |
| O=C(NN=C[C@H]1[C@H]2CC(O)OC[C@H]2C[C@H]1O)c1ccncc1 (some centres not stated) | 3.75 |
| O=C(N/N=C1/C[C@@H]2[C@H](COC(c3ccccc3)(c3ccccc3)c3ccccc3)C[C@H](COC(c3ccccc3)(c3ccccc3)c3ccccc3)[C@@H]2C1)c1ccncc1 | 0.62 |

Of the compounds above, 3 contain four or more nitrogen atoms:

| SMILES | Inhibition [%] |
| --- | --- |
| O=C(N/N=C/C[C@@H]1[C@@H](/C=N/NC(=O)c2ccncc2)[C@H](O)C[C@@H]1O)c1ccncc1 | 8.68 |
| O=C(NNC(=O)c1cccc([N+](=O)[O-])c1C(=O)O)c1ccncc1 | 10.43 |
| O=C(NNC(=O)c1ccc([N+](=O)[O-])cc1C(=O)O)c1ccncc1 | 10.8 |
